Drawing on publication PMC3382170, this text covers binding for three molecules.

Protein sequences, listed by entry. Tags and fused reporters are not part of them.
UniProt Q60749: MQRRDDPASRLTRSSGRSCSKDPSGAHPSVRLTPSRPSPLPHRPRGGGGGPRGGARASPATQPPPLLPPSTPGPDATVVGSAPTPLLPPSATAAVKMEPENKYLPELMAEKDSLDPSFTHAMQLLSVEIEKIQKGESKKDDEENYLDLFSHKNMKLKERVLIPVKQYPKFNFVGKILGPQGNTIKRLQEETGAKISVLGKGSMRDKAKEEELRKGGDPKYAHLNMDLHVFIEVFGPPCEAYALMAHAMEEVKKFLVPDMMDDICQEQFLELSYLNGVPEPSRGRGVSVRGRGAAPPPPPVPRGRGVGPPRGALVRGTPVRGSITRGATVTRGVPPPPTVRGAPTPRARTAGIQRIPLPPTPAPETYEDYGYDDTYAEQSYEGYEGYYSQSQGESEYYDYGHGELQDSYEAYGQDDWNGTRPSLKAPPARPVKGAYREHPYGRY
UniProt Q8R418: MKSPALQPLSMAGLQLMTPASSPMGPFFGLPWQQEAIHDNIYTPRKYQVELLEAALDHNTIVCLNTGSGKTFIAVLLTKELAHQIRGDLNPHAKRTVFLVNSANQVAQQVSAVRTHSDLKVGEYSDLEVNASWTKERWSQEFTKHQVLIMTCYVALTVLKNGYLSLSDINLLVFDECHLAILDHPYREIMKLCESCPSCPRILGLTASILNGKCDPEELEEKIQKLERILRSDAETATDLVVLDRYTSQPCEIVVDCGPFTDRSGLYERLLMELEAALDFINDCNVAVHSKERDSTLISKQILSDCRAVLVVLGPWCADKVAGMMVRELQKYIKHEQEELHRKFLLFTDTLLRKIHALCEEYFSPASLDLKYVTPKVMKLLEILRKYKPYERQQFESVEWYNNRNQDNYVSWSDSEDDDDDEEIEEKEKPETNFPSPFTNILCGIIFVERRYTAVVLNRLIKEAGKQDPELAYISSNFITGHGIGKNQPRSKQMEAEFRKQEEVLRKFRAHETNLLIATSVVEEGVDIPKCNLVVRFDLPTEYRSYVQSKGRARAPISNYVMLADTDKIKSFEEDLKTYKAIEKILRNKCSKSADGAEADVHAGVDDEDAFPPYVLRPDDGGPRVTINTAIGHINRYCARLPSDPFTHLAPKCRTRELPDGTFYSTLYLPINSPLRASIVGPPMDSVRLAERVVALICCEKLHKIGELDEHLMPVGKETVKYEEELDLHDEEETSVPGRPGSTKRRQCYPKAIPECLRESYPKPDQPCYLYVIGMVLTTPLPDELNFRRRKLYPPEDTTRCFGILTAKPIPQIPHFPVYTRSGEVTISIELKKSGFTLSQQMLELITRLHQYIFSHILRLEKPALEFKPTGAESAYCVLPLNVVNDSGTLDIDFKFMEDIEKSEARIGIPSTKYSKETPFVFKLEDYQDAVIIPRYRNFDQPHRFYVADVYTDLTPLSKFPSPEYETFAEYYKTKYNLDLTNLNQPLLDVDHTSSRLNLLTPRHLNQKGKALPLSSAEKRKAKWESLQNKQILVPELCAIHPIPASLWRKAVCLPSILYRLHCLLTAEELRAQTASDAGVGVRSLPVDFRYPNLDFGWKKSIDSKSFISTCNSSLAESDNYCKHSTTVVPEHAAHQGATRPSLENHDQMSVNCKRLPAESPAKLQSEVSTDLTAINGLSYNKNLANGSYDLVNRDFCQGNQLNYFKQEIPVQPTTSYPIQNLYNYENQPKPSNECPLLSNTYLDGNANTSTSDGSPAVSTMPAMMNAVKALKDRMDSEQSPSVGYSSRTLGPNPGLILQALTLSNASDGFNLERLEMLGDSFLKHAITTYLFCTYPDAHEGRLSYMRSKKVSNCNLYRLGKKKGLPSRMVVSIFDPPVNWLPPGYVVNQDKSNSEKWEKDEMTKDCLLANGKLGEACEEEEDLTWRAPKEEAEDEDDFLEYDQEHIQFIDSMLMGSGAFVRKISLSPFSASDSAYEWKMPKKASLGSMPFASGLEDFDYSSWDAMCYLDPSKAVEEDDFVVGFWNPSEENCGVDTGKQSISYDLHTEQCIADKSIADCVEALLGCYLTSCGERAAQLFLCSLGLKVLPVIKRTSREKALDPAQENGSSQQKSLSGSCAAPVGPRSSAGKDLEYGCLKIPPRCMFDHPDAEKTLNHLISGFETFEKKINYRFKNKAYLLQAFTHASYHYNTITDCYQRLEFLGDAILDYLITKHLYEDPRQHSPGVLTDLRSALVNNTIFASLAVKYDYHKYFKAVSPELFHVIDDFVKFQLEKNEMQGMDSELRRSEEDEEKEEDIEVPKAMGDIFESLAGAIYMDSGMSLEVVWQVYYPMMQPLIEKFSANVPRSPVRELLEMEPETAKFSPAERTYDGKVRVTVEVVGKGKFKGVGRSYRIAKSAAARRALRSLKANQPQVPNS

These are yes or no findings as the source states them, for the method shown. In cells and extracts the contact can be indirect. Some results given as binding are weak or reduced against the parent protein; the word gives no strength.

Assay [1] deals with T1, DROSHA (mouse (endogenous in male germ cells)) (UniProt Q5HZJ0).
T1 sequence: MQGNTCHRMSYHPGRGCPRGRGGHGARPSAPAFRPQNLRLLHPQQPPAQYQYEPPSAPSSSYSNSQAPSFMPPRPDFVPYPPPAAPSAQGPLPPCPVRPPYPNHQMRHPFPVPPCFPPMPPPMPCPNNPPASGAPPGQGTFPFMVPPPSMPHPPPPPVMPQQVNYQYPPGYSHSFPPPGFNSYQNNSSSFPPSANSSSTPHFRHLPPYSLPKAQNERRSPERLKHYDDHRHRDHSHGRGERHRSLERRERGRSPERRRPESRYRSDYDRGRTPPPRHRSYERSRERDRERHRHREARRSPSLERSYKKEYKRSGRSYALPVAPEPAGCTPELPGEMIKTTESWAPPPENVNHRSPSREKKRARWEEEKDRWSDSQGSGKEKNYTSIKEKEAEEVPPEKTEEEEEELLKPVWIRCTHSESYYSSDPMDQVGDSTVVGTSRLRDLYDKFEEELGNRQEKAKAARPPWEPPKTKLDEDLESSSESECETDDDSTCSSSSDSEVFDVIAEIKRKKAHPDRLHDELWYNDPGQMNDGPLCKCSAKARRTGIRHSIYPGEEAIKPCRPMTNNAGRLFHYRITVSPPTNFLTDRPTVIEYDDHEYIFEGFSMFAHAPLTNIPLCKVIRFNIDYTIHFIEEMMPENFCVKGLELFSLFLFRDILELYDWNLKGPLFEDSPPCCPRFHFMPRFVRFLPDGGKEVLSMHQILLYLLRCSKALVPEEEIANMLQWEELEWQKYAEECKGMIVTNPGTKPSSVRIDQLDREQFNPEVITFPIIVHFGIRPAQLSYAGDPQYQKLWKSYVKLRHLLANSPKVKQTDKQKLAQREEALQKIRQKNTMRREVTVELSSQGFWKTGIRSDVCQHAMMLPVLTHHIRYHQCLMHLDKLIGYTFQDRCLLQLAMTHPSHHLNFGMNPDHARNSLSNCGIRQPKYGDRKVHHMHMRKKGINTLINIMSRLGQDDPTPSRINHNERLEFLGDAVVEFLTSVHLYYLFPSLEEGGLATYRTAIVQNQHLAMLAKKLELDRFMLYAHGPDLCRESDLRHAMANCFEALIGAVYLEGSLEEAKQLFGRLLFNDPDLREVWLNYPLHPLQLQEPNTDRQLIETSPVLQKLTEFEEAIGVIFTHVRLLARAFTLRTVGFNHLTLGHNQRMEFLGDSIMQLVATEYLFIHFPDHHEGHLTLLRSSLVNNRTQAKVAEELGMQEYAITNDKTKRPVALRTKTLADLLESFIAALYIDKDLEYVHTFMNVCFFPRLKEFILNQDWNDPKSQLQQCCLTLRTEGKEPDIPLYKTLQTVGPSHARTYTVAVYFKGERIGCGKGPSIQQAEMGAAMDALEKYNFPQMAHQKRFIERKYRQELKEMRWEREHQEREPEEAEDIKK
Nature of the assay: co-IP; extracts of a mouse germ cell fraction enriched in secondary spermatocytes; rabbit anti-SAM68, anti-DROSHA or control IgGs (5 ug), protein A-Sepharose, 3 h at 4°C; 100 mM NaCl, 10 mM MgCl2, 30 mM Tris-HCl pH 7.4, 1 mM DTT, 0.5% Triton X-100; Western blot. For orientation: In western blotting, separated proteins are transferred to a membrane and probed.

Assay [2] concerns the target T1, DROSHA (mouse (endogenous in male germ cells)). In words: co-IP; co-immunoprecipitation performed in the presence of RNase in the germ cell extract; Western blot; precipitating antibody not told.
In assay [3] the target is SAM68 (mouse (endogenous in male germ cells)) (UniProt Q60749). Nature of the assay: co-IP; extracts of a mouse germ cell fraction enriched in secondary spermatocytes; rabbit anti-SAM68, anti-DROSHA or control IgGs (5 ug), protein A-Sepharose, 3 h at 4°C; 100 mM NaCl, 10 mM MgCl2, 30 mM Tris-HCl pH 7.4, 1 mM DTT, 0.5% Triton X-100; Western blot.
The target is the same in assay [4]. In words: co-IP; co-immunoprecipitation performed in the presence of RNase in the germ cell extract; Western blot; precipitating antibody not told.
For assay [5] the target is unchanged. In words: condition: only in extracts of primary spermatocytes and of round spermatids; co-IP; extracts of mouse primary spermatocytes and of round spermatids; anti-SAM68 antibody, protein A-Sepharose; Western blot with anti-MVH.
The target is the same in assay [6]. Nature of the assay: co-IP; extracts of a mouse germ cell fraction enriched in secondary spermatocytes; rabbit anti-SAM68, anti-DROSHA or control IgGs (5 ug), protein A-Sepharose, 3 h at 4°C; 100 mM NaCl, 10 mM MgCl2, 30 mM Tris-HCl pH 7.4, 1 mM DTT, 0.5% Triton X-100; Western blot. The source holds these as a separate data set.

On to SAM68 (from UniProt Q60749 1-443), for which the binding entry in assay [1] and in assay [2] was “binds” in each case.

In the case of “DICER (from UniProt Q8R418 1-1916) (enzyme)”, the binding result in assay [3] and in assay [4] was “binds” in each case.

B1: MVH (Mouse VASA Homologue) (protein, UniProt Q61496 1-702)
chain: MGDEDWEAEILKPHVSSYVPVFEKDKYSSGANGDTFNRTSASSDIGESSKKENTSTTGGFGRGKGFGNRGFLNNKFEEGDSSGFWKESNNDCEDNQTRSRGFSKRGGCQDGNDSEASGPFRRGGRGSFRGCRGGFGLGRPNSESDQDQGTQRGGGLFGSRKPAASDSGNGDTYQSRSGSGRGGYKGLNEEVVTGSGKNSWKSETEGGESSDSQGPKVTYIPPPPPEDEDSIFAHYQTGINFDKYDTILVEVSGHDAPPAILTFEEANLCQTLNNNIAKAGYTKLTPVQKYSIPIVLAGRDLMACAQTGSGKTAAFLLPILAHMMRDGITASRFKELQEPECIIVAPTRELINQIYLEARKFSFGTCVRAVVIYGGTQFGHSVRQIVQGCNILCATPGRLMDIIGKEKIGLKQVKYLVLDEADRMLDMGFGPEMKKLISCPGMPSKEQRQTLLFSATFPEEIQRLAGDFLKSSYLFVAVGQVGGACRDVQQTILQVGQYSKREKLVEILRNIGDERTMVFVETKKKADFIATFLCQEKISTTSIHGDREQREREQALGDFRCGKCPVLVATSVAARGLDIENVQHVINFDLPSTIDEYVHRIGRTGRCGNTGRAISFFDTDSDNHLAQPLVKVLSDAQQDVPAWLEEIAFSTYVPPSFSSSTRGGAVFASVDTRKNYQGKHTLNTAGISSSQAPNPVDDESWD
Take B1: the values for the binding entry in assay [5] and in assay [6] were “no binding” and “binds”, respectively.
